The record followed here is doi:10.1101/2022.06.14.496162.

These are yes or no findings as the source states them, for the method shown. Binding seen in cells or lysates may run through a third protein. Some entries that bind do so weakly or less than the wild type. Tags and fused reporters may be left off the sequences shown.

This experiment deals with T1, PARG-1::GFP (C. elegans) (UniProt Q867X0).
T1 sequence: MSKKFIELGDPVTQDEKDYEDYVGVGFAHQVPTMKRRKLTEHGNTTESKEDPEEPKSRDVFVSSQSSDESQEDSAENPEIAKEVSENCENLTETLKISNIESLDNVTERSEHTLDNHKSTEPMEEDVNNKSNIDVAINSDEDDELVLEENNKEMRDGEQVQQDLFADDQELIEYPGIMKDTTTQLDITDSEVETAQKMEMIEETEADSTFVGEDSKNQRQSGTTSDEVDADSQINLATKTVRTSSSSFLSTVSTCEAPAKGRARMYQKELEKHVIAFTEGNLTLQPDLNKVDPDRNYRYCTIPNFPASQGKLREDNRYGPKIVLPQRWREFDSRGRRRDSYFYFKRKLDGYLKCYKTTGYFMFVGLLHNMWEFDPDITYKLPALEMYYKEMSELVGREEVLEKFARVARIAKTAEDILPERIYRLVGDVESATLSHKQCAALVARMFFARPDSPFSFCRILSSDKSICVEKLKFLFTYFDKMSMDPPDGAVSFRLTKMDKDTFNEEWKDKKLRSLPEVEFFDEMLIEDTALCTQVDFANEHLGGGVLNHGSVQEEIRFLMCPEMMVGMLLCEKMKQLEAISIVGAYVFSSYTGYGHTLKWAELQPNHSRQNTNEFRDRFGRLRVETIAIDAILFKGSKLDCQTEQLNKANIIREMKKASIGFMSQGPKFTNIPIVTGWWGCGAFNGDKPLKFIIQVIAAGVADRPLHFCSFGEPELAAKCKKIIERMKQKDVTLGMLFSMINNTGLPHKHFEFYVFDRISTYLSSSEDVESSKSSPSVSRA
The experiment in a line: co-IP.

B1: BRC-1::HA (protein, UniProt B6VQ60 1-609)
chain: MADVALRITETVARLQKELKCGICCSTYKDPILSTCFHIFCRSCINACFERKRKVQCPICRSVLDKRSCRDTYQITMAVQNYLKLSEAFKKDIENMNTFKSLPPEKMFMESQMPLDITIIPENDGKRCAPDFAIPFLPVRRKRPSRPQPPSAFAEEPAEPVEPPEPATKQPVELQSRVFPLEKLKKDVETSTETYKISREELKNVDIEEYINTLRENSTEIDEIDALFQLMPTMRQFLRNNINQLMEKFHVAPPKKSEKPANRRVSFASSQDLENIKIMTASESLETPPEPIQKLAQKPEVFKSTQNLIDLNLNTAVKKPVVVASDDDEVVEDSEGELQIDEDDLANVTCATSSTTLDADRTPKAIQDDEDRIDDELSQVPKTIVCSRIHNDADEVELLSDFYHKFLSNACRFAEDVNEHTTHLVMMNSEGRSISQKSTAYLYAIARKCVIVGRQWLVDCITTGLLLSEADYTITSCSSTIPVKIPPSIGSEMGWLRSRNDEHGKLFAGRRFMILRKFTMNPYFDYKQLIELVQQCGGEILSCYENLSPEKLYIIFSKHSKAIEESKNIENLYKCDVVTMEWVLDSISEYLILPTQPYKAVDSIGCLQD
As to B1, the binding result is given as “binds”.

B2: BRD-1::HA (protein, UniProt Q21209 1-702)
chain: MFENTKKALETFRTAIECVKCKKPRGDLQYLGSSCKHAYCWECIATFQQKPSGKRSSVARHMCPSCAFPLDTSKITEAHMLKTCFDTLSELNDLLQKVGTTSLTQAEFACTQNIFNKEKTPADAVEKFLETQAHMPDEMGQLGEEDDDLMCKDENRENSNSPELDIFHDYSKEASPTRNSTKRPSTVSVHERKPKRSSILKTSVKNEPAAPVVDLFASQVPQRTHQNDLLTPFIERRSTAPAATGVATYAQAFGSSSNPVKAEIIEEDIFSKAIPLTKRQASMSASAKKQPKLEPEEPEEVPSTSRSRKNSIKSDKIERRSQSPMSFGEKSMSVKSEQRRSSYGTRRGEAVLVNSIRNNRIPQLRSAVEAGTCVNEKEDGKTPLYVAVENSSLEAVKILVEAGAVINASCGSTLETTLHEAVRRQNTQIVEYLLSKGASIKIRNIAGKTVEEMAKSDPKIRKIIEKFKTEQRVLQPVVAPPKSRLHFVQLIDEKMLTESEKRKLPGKINIVPADMDSPTHVVVTVDLKTRVLNINKEHIGEILKAIIKSGMIVSRDWLRACIIDPSKVDDDRSYMVQKVRWMEGEVFENTIEQWKKTITKMQPKLFAGCKFFIPKPKYNFLDRPALFEIIRSAGGQAAAREPIIDEKDPPPYHNANLKPNFVLYSLTHDIGDKFRDCTKYNLVSEQWLIEAILGCSITTPPH
Regarding B2, the binding entry is “binds”.
